# Source: PubChem BioAssay AID2685 (National Center for Advancing Translational Sciences (NCATS), 2010)
# Some of the results follow. Further columns of the screen follow, without active or inactive calls. Compounds called inactive in the main read-out are mostly missing here. The note in brackets gives the kind of curve behind each potency; many fits are weak.
# Experiment: qHTS Assay for Lipid Storage Modulators in Drosophila S3 Cells;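 for cell number change: cells counted by Cell Tracker Red CMTPX staining in the red channel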
# Details: BODIPY lipid droplet fluorescence, 18-24 h; for cell number change: measured here: cell count max response, cells fed with added oleic acid
# Outline: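 Drosophila S3 cells got compounds at several concentrations plus oleic acid (400 uM solution). Laser-scanning cytometry with 488 nm excitation read lipid droplets at 500-530 nm and cells at 575-640 nm. Percent activity was relative to 20 uM Triacsin C.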
# [1] = measured here: cell number channel AC50, cells fed with added oleic acid
# [2] = measured here: lipid fluorescence (Fed channel) AC50, cells fed with added oleic acid
SMILES,cell number change,AC50 [1],AC50 [2]
Cc1cccc(OCc2n[nH]c(=S)o2)c1C,30.3%,"32.6 µM [rising, single point]",–
NS(=O)(=O)c1ccc(CCNC(=O)Cn2c(=O)c3cccn3c3cccnc32)cc1,18.3%,–,"0.58 µM [falling, single point]"
COCCNC(=O)CN(c1ccc(C)cc1)S(=O)(=O)c1ccc(SC)cc1,-0.701%,–,"1.3 µM [rising, full curve, poor fit]"
Cc1ccc(NC(=O)CCn2ccc([N+](=O)[O-])n2)nc1,-1.8%,–,"16.4 µM [rising, partial curve]"
C(=N\Nc1ncnc2ccccc12)/c1ccccc1,83.2%,"10.3 µM [rising, partial curve, poor fit]",–
CCOC(=O)c1sc2nc(C)nc(SCC(=O)N(C)C3CCS(=O)(=O)C3)c2c1C (centres undefined),-6.4%,–,"0.82 µM [rising, single point]"
Cc1ccc(CNC(=O)c2ccc(N(C)S(=O)(=O)c3ccccc3)cc2)cc1,-17.1%,"0.517 µM [falling, partial curve, poor fit]","0.206 µM [falling, single point]"
Cc1noc2ncnc(Sc3ccc(Cl)cc3)c12,-52.2%,"4.11 µM [falling, full curve]","2.59 µM [falling, full curve]"
COc1ccc(C(=O)Cn2nnc(-c3ccc(N4CCOCC4)cc3)n2)cc1OC,7.73%,"0.92 µM [rising, full curve]","0.58 µM [rising, single point]"
CCOC(=O)c1ccc(N=c2sc(C(=O)OC)cc(=O)n2Cc2ccco2)cc1,-8.38%,–,"23.1 µM [falling, single point]"
O=C(COC(=O)[C@@H]1CCCN1S(=O)(=O)c1ccc(Cl)cc1)NCC(F)(F)F,-66.7%,"29.1 µM [falling, single point]","0.92 µM [falling, full curve, poor fit]"
CC12CC3CC(C)(C1)CC(C(=O)NNC(=O)c1ccncc1)(C3)C2,1.18%,–,"1 µM [rising, full curve, poor fit]"
COc1ccccc1NC(=O)Nc1ccccc1Br,-8.86%,–,"20.6 µM [rising, single point]"
O=C(N/C=C/c1ccco1)OCc1ccccc1,-21.4%,–,–
CN(CC(=O)Nc1ccccc1C(=O)NC1CC1)Cc1ccccc1F,50%,"3.26 µM [falling, single point]","29.1 µM [falling, single point]"
O=C(O)C1=C[C@@H](c2ccc(C(F)(F)F)cc2)C[C@@H](OCc2ccc(CO)cc2)O1,10.1%,–,"11.6 µM [rising, single point]"
CN(C)Cc1n[nH]c(=O)c2ccccc12,-56.4%,"0.0731 µM [falling, full curve, poor fit]",–
Cc1ccc(Oc2ccc(C=O)cn2)cc1,-44.7%,"9.2 µM [falling, partial curve, poor fit]","18.4 µM [falling, single point]"
Cc1sccc1/C=N/NC(=O)c1ccco1,21.6%,–,"0.58 µM [falling, single point]"
O=C(CS(=O)(=O)c1cn(Cc2ccc(Cl)cc2)c2ccccc12)N1CCCC1,-16.5%,–,"5.17 µM [rising, full curve]"

SMILES,cell number change,AC50 [1],AC50 [2]
Cn1c(CCN2CCCCC2)nc2cc(NC(=O)COc3ccc(Cl)cc3)ccc21,–,–,"4.11 µM [rising, single point]"
COc1cccc(NC(=O)c2oc3ccccc3c2NC(=O)C2CC2)c1,–,"6.51 µM [rising, single point]","6.51 µM [rising, single point]"
Cn1c(=O)c(=O)n(C)c2cc(S(=O)(=O)NCCOc3ccccc3Cl)ccc21,-25.2%,–,–
COc1ccc(Br)cc1-c1noc(-c2ccccc2)n1,–,"2.06 µM [rising, partial curve]","2.31 µM [rising, partial curve]"
Cc1cc(-n2c(C)cc(C(=O)CSc3ncnc4ccccc34)c2C)no1,-24.6%,–,"0.164 µM [rising, partial curve, poor fit]"
CCN(CCNC(=O)C1CCN(Cc2nc(-c3cccc(Cl)c3)oc2C)CC1)c1ccccc1,-27.7%,"0.0082 µM [falling, full curve, poor fit]",–
COc1ccc(NCC(=O)N/N=C/c2c(C)nn(Cc3ccccc3)c2Cl)cc1,11.3%,–,"5.8 µM [rising, full curve]"
COC(=O)CN(C)C(=O)c1ccc2nc(Cc3cccc(Cl)c3)oc2c1,20.8%,–,"8.2 µM [rising, partial curve]"
Cc1ccc(NC(=O)c2sc(Cl)nc2C)c(C)c1,83.3%,"29.1 µM [rising, single point]",–
CC(C)(C)c1ccc(C(=O)N/C(=C\c2cccs2)C(=O)N2CCOCC2)cc1,7.83%,–,–
CCC(CC)C(=O)c1c[nH]c(C(=O)NCc2ccccc2)c1,16.7%,–,"3.66 µM [rising, single point]"
O=C(CSc1ncccc1-c1nc2ccccc2[nH]1)N1CCCCC1,-13.8%,–,"1.16 µM [rising, full curve, poor fit]"
CCSS(=O)(=O)c1cccc2cccnc12,-32.5%,–,"18.4 µM [falling, single point]"
O=C(O)COc1ccc(NC(=O)c2ccco2)cc1,-10.5%,"5.8 µM [falling, single point]","6.51 µM [falling, single point]"
CC1=C(C(=O)Nc2ccccc2)C(c2ccc(N(C)C)cc2)NC(=O)N1 (centres undefined),-36.9%,"0.206 µM [falling, full curve]","4.61 µM [falling, full curve]"
O=C(CNC(=O)c1cccc(Cl)c1)N/N=C/C=C/c1ccccc1,52.5%,"0.164 µM [rising, full curve, poor fit]","6.51 µM [rising, single point]"
COc1ccc2nc(/C=N/NC(=O)CCCCCNC(=O)OC(C)(C)C)ccc2c1,17.8%,"0.58 µM [rising, full curve, poor fit]",–
CC1(C)Cc2nc3sc(C(=O)NCCCO)c(N)c3cc2CS1,-6.37%,–,–
Nc1ccccc1C(O)(Cc1ccccc1)c1ccccc1 (centres undefined),-31.6%,"29.1 µM [falling, single point]","29.1 µM [falling, single point]"
CCCN(CC1CCCO1)C(=O)c1cc(COc2cccc(OC)c2)on1 (centres undefined),-5.6%,–,–

# Single values from above.
# For cell number change, COc1ccccc1NC(=O)Nc1ccccc1Br is listed with -8.86%
# For cell number change, CN(CC(=O)Nc1ccccc1C(=O)NC1CC1)Cc1ccccc1F is listed with 50%
# For AC50 [1], O=C(O)COc1ccc(NC(=O)c2ccco2)cc1 is listed with 5.8 µM [falling, single point]
# For cell number change, CN(C)Cc1n[nH]c(=O)c2ccccc12 is listed with -56.4%

# Following part.

SMILES,cell number change,AC50 [1],AC50 [2]
CCc1ccc(NC(=O)CN2C(=O)CC(C)S(=O)(=O)c3ccccc32)cc1 (centres undefined),–,–,"29.1 µM [falling, single point]"
COc1cc(/C=C/c2c([N+](=O)[O-])c(=O)n(C)c(=O)n2C)cc(OC)c1OC,54.8%,"9.2 µM [rising, partial curve]","2.06 µM [rising, partial curve]"
CCOC(=O)CCCSc1nc2sc3c(c2c(=O)[nH]1)CCC3,13%,–,"4.11 µM [falling, single point]"
COc1ccc(-c2nc(-c3ccc(Br)o3)no2)cc1OC,-32.9%,–,"29.1 µM [falling, single point]"
Cc1cccc(NC(=O)c2ccc(F)c(S(=O)(=O)N3CCC4(CC3)OCCO4)c2)c1,-25.4%,–,"29.1 µM [falling, single point]"
CCOC(=O)N1CCC(NC(=O)CSCc2nc(-c3ccccc3Cl)oc2C)CC1,-12.1%,"4.11 µM [falling, single point]","5.8 µM [falling, single point]"
O=C(CSCc1ccco1)c1cccs1,7.33%,–,–
COC(=O)N(C)CCCC1(C)C(=O)N(C)c2ccc(O)cc21 (centres undefined),11%,"0.82 µM [falling, single point]",–
CCN1CCN(C(=O)NS(=O)(=O)c2ccc(C)cc2)CC1,-13.9%,–,"0.58 µM [falling, single point]"
Cc1ccc(C(=O)N2CC(C(=O)O)C2)cc1,-0.615%,–,"6.51 µM [falling, single point]"
O=C(c1ccc(CS(=O)Cc2ccc(Cl)cc2)o1)N1CCN(c2ccccc2F)CC1 (centres undefined),–,–,"0.326 µM [falling, single point]"
CC(=O)c1cc2c(cc1NC(=O)c1cnc(C)cn1)OCO2,18.8%,–,"0.184 µM [rising, full curve, poor fit]"
COc1ccccc1Cn1c(=S)[nH]c2cc(C(=O)NCc3cccnc3)ccc2c1=O,21.6%,"0.082 µM [falling, full curve, poor fit]",–
Nc1n[nH]c(C(F)(F)F)c1-c1ccccc1,–,"0.82 µM [falling, single point]","0.651 µM [falling, full curve]"
CC1(C(=O)O)COC(c2ccc([N+](=O)[O-])cc2)OC1 (centres undefined),-5.79%,–,"6.51 µM [falling, single point]"
C=CCc1cccc(/C=N/NC(=O)CCCNc2ccc(C)cc2)c1O,-66.4%,"13 µM [falling, partial curve]","14.6 µM [falling, partial curve]"
CCN(CC)CCNC(=O)c1cc2c(=O)n(C)c3ccccc3c2n1C,–,–,"0.184 µM [falling, full curve]"
COc1ccc(NC(=O)C(c2ccccc2)N(C)C(=O)c2cnccn2)cc1 (centres undefined),5.34%,–,"5.8 µM [rising, partial curve]"
